Test results reported in the supplement of paper PMC10849652.
The other results are listed elsewhere or left out.

By UniProt entry, the sequences of proteins in these tests, tags left out. Where a name states a change or a piece, a line headed by the entry shows the natural chain unless it says otherwise.
UniProt Q9Y3I1: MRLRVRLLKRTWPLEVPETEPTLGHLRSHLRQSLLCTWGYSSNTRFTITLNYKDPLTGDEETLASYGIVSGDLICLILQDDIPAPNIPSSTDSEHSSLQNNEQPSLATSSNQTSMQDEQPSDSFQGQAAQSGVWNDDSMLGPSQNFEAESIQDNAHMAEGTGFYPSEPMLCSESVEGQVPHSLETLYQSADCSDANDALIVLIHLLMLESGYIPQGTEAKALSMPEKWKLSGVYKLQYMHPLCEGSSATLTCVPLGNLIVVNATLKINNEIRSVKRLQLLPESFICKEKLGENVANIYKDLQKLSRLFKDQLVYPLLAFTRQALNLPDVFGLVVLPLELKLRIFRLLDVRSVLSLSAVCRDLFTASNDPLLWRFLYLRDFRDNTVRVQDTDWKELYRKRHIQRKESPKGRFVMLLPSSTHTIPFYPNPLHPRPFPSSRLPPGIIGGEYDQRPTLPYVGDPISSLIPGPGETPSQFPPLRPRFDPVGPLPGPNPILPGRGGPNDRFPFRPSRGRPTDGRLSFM
UniProt Q9UKT5: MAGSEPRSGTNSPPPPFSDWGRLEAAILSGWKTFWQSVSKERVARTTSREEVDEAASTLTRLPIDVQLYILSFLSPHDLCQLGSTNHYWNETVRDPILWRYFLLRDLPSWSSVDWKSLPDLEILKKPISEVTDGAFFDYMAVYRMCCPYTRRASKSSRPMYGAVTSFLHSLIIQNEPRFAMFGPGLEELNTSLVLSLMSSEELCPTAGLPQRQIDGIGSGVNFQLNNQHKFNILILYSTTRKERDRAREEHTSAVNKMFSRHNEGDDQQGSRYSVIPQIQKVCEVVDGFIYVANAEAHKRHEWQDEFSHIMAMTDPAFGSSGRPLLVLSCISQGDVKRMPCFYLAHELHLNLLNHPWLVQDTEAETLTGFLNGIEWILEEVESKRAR
UniProt Q8TDW7: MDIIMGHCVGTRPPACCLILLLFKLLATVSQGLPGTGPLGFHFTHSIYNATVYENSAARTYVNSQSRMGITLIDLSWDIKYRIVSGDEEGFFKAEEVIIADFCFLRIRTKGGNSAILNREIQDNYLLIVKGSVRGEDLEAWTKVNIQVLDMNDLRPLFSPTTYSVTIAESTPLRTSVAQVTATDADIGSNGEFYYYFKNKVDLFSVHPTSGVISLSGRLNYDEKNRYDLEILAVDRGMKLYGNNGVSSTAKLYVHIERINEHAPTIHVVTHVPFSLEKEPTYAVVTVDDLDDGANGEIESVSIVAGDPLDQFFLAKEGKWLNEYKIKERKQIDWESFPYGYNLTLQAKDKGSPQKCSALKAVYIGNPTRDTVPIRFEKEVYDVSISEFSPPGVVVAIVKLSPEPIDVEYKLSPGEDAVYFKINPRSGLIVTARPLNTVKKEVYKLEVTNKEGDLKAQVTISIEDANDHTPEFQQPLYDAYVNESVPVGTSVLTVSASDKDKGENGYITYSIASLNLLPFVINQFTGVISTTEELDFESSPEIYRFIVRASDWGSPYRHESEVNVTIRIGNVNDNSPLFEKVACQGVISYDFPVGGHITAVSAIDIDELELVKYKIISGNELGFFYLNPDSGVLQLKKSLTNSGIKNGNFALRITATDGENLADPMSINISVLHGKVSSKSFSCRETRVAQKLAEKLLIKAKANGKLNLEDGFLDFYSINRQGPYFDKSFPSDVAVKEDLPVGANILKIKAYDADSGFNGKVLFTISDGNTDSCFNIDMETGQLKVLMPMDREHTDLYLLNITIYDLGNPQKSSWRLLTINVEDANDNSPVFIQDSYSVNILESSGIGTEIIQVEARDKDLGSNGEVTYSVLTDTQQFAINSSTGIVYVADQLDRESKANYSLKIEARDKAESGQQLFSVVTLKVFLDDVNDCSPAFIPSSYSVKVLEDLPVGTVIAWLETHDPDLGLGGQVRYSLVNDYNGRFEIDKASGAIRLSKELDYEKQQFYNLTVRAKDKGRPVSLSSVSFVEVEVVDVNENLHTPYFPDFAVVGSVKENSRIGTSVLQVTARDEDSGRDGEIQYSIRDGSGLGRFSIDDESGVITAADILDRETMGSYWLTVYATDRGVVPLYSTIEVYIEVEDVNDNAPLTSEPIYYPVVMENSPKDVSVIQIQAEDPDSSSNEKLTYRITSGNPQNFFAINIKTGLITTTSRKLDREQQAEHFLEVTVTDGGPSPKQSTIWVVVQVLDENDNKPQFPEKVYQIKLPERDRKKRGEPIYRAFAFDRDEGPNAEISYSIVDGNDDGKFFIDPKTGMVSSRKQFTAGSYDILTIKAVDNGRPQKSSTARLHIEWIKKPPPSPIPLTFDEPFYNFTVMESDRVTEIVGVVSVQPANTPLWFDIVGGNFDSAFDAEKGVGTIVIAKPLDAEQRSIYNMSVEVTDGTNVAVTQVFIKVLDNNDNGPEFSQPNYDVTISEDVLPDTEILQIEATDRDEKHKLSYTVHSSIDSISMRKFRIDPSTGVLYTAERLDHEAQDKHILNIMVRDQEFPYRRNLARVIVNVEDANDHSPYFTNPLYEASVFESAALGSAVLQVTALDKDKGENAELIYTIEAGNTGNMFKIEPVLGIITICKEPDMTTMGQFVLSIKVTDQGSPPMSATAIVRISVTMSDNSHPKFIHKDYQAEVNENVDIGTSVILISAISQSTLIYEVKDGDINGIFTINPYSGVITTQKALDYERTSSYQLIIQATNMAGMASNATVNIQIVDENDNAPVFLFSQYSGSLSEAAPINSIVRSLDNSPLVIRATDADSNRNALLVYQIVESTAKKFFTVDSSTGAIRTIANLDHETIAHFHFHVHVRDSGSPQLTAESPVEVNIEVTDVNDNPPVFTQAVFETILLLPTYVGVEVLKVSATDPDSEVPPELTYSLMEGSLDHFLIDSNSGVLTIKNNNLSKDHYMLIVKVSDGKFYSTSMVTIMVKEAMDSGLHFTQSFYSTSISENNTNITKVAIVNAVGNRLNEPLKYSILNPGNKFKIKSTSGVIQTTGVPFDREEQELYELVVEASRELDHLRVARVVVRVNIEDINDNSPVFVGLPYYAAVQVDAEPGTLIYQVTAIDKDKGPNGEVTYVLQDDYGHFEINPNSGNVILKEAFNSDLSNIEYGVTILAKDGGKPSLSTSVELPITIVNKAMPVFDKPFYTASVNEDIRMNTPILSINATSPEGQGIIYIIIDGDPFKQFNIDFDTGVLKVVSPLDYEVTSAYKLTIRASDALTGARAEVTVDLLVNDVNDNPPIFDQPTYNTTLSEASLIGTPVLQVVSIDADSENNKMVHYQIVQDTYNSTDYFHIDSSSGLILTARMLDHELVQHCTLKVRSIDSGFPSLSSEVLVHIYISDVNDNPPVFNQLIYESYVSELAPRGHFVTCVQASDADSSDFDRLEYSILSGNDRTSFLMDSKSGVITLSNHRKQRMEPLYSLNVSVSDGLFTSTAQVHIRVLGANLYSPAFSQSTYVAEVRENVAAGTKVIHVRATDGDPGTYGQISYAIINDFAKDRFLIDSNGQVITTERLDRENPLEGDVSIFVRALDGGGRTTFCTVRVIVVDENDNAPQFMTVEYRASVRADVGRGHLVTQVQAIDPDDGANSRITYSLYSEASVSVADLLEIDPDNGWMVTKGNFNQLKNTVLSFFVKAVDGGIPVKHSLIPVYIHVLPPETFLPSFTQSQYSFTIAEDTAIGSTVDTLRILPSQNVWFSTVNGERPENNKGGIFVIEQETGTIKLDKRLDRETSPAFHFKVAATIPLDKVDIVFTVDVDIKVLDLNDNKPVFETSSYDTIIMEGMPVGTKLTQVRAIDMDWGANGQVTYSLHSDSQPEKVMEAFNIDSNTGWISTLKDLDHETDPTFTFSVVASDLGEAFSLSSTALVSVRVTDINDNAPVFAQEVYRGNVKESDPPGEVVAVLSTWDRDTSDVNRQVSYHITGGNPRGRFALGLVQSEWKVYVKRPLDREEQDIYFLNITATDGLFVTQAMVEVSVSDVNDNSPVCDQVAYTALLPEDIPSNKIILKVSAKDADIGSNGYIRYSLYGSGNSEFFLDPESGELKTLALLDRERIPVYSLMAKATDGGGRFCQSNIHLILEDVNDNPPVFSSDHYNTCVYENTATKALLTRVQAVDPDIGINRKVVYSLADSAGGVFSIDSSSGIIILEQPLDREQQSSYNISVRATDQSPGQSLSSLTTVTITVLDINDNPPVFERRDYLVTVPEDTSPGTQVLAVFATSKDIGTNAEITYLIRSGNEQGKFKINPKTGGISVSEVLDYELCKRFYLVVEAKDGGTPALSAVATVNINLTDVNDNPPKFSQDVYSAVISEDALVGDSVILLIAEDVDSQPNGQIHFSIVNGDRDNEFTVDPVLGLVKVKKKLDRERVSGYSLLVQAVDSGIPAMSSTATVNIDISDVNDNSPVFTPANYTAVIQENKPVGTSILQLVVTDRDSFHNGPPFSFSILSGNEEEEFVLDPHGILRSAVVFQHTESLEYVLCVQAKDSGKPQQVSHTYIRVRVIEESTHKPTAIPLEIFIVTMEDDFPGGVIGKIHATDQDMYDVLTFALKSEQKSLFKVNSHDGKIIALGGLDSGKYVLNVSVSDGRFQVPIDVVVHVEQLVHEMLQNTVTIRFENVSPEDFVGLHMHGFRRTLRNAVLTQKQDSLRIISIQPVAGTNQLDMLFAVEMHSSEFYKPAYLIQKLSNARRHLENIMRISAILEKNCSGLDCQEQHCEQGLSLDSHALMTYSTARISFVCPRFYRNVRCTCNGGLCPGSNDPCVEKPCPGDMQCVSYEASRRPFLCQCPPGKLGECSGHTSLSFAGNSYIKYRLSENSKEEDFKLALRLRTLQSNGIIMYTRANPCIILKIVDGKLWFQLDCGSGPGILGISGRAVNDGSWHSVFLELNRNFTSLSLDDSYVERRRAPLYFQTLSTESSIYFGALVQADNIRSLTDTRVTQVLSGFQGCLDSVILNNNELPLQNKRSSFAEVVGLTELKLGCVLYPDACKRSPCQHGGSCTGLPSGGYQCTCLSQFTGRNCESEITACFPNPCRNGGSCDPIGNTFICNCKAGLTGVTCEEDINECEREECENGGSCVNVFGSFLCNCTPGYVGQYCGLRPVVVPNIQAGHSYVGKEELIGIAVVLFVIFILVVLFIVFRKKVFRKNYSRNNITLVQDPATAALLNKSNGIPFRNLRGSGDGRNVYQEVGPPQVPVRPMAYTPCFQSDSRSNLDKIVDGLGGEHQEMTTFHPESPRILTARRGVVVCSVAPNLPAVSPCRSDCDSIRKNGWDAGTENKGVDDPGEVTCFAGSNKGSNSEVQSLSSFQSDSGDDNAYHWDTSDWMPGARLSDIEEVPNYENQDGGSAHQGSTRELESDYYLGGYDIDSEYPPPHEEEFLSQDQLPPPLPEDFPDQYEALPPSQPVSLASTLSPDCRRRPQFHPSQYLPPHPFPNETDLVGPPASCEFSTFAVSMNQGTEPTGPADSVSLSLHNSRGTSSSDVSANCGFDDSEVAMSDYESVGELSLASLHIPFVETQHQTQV
UniProt Q13643: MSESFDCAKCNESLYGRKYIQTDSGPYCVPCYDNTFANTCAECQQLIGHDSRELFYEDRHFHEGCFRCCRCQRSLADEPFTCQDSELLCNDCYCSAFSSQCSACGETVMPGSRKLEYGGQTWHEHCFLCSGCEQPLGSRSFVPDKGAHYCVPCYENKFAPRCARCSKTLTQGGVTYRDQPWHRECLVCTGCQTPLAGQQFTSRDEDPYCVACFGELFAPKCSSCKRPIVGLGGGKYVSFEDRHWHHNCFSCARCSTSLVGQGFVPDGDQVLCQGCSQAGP
UniProt Q9UK73, whole entry, looked up: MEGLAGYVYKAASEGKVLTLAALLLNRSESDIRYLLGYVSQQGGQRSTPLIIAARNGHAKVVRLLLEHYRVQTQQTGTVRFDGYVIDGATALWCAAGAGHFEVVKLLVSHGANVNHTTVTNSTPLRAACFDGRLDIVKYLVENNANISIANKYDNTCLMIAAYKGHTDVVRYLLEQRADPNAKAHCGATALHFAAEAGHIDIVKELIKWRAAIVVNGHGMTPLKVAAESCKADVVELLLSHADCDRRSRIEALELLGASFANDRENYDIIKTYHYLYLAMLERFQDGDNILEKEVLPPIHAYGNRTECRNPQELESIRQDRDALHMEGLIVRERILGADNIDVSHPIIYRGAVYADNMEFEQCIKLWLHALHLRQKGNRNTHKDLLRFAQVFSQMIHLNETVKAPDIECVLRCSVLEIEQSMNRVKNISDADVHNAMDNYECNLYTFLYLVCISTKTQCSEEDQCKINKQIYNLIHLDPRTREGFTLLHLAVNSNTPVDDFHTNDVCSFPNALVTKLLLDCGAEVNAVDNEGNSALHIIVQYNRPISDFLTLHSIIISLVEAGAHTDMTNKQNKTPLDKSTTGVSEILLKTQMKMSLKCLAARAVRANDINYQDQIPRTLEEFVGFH
UniProt Q96GI7: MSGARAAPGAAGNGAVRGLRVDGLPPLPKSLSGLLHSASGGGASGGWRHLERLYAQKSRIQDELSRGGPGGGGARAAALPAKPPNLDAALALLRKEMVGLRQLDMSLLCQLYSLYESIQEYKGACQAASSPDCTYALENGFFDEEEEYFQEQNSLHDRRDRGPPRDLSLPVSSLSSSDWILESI

Legend:
Assay in all cases: log2 fold change, soluble protein after heating vs DMSO (PISA); higher = thermal stabilisation; K562 lysate, 10 uM; active = over 0.2 and 3.5 SD of the protein, either way, in both replicates (recomputed)
lapatinib = compound: CS(=O)(=O)CCNCc1ccc(-c2ccc3ncnc(Nc4ccc(OCc5cccc(F)c5)c(Cl)c4)c3c2)o1 [lapatinib]
Procedure, shortened: (§1)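 Log-two fold change in thermal stability relative to solvent controls is reported from duplicates. For each sample, crude K562 extract from dounce-homogenised pellets in PBS pH 7.4 with 1 mM MgCl2, at 1 mg/mL protein, was treated with 10 μM compound for 30 min. Aliquots heated for 3 min across 48°C-58°C were pooled, brought to 0.5% NP-40 at 4°C and cleared at 21,000xg for 90 min. The supernatant was quantified by TMTpro 16plex LC-MS/MS with channel sums equalised.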

pictilisib = compound: CS(=O)(=O)N1CCN(Cc2cc3nc(-c4cccc5[nH]ncc45)nc(N4CCOCC4)c3s2)CC1 [pictilisib]
Procedure, shortened: as §1

crizotinib = compound: C[C@@H](Oc1cc(-c2cnn(C3CCNCC3)c2)cnc1N)c1c(Cl)ccc(F)c1Cl [crizotinib]
Procedure, shortened: as §1

[1] = compound: C[C@H](C1=CC=C(C=C1)C(=O)NC2=C3C=CNC3=NC=C2)N
Procedure, shortened: as §1

duvelisib = compound: C[C@H](Nc1ncnc2nc[nH]c12)c1cc2cccc(Cl)c2c(=O)n1-c1ccccc1 [duvelisib]
Procedure, shortened: as §1

gandotinib = compound: Cc1cc(Nc2cc(CN3CCOCC3)c3nc(C)c(Cc4ccc(Cl)cc4F)n3n2)n[nH]1 [gandotinib]
Procedure, shortened: as §1

tozasertib = compound: Cc1cc(Nc2cc(N3CCN(C)CC3)nc(Sc3ccc(NC(=O)C4CC4)cc3)n2)n[nH]1 [tozasertib]
Procedure, shortened: as §1

doramapimod = compound: Cc1ccc(-n2nc(C(C)(C)C)cc2NC(=O)Nc2ccc(OCCN3CCOCC3)c3ccccc23)cc1 [doramapimod]
Procedure, shortened: as §1

bafetinib = compound: Cc1ccc(NC(=O)c2ccc(CN3CC[C@H](N(C)C)C3)c(C(F)(F)F)c2)cc1Nc1nccc(-c2cncnc2)n1 [bafetinib]
Procedure, shortened: as §1

[2] = compound: Cc1cccc(CC(=O)N2CCc3c2ccc(-c2cn(C)c4ncnc(N)c24)c3F)n1
Procedure, shortened: as §1

nilotinib = compound: Cc1cn(-c2cc(NC(=O)c3ccc(C)c(Nc4nccc(-c5cccnc5)n4)c3)cc(C(F)(F)F)c2)cn1 [nilotinib]
Procedure, shortened: as §1

[3] = compound: Cc1nc(Nc2n[nH]c3c2CN(C(=O)N[C@H](CN(C)C)c2ccccc2)C3(C)C)c2sccc2n1
Procedure, shortened: as §1

dasatinib = compound: Cc1nc(Nc2ncc(C(=O)Nc3c(C)cccc3Cl)s2)cc(N2CCN(CCO)CC2)n1 [dasatinib]
Procedure, shortened: as §1

[4] = compound: Cc1ncc(-c2ccnc(Nc3ccc(S(C)(=O)=O)cc3)n2)n1C(C)C
Procedure, shortened: as §1

[5] = compound: Cn1cc(-c2ccc3c(c2)CCN3C(=O)Cc2cccc(C(F)(F)F)c2)c2c(N)ncnc21
Procedure, shortened: as §1

quisinostat = compound: Cn1cc(CNCC2CCN(c3ncc(C(=O)NO)cn3)CC2)c2ccccc21 [quisinostat]
Procedure, shortened: as §1

tipifarnib = compound: Cn1cncc1[C@@](N)(c1ccc(Cl)cc1)c1ccc2c(c1)c(-c1cccc(Cl)c1)cc(=O)n2C [tipifarnib]
Procedure, shortened: as §1

[6] = compound: NC(=O)Nc1cc(-c2cccc(F)c2)sc1C(=O)N[C@H]1CCCNC1
Procedure, shortened: as §1

[7] = compound: NC(=O)c1cnc(N[C@@H]2CCCC[C@@H]2N)nc1Nc1cccc(-n2nccn2)c1
Procedure, shortened: as §1

[8] = compound: NC1(c2ccc(-c3nc4ccn5c(=O)[nH]nc5c4cc3-c3ccccc3)cc2)CCC1
Procedure, shortened: as §1

Measured: log2 fold change

FCHO1 (UniProt O14526)
inactive: lapatinib -0.034 | pictilisib 0.027 | crizotinib -0.072 | [1] -0.061 | duvelisib -0.025 | gandotinib -0.027 | tozasertib 0.027 | doramapimod -0.039 | bafetinib -0.141 | [2] 0.058 | nilotinib 0.007 | [3] -0.02 | dasatinib -0.022 | [4] 0.035 | [5] 0.02 | quisinostat 0.013 | tipifarnib -0.025 | [6] 0.063 | [7] 0.006 | [8] 0.007

FBXO7 (UniProt Q9Y3I1)
inactive: lapatinib -0.006 | pictilisib -0.109 | crizotinib 0.045 | [1] -0.008 | duvelisib -0.041 | gandotinib 0.03 | tozasertib -0.06 | doramapimod 0.037 | bafetinib -0.015 | [2] 0.015 | nilotinib -0.022 | [3] 0.002 | dasatinib -0.007 | [4] 0.026 | [5] 0 | quisinostat 0.01 | tipifarnib 0.053 | [6] -0.012 | [7] 0.014 | [8] 0.008

FBL (UniProt P22087)
inactive: lapatinib -0.047 | pictilisib -0.017 | crizotinib -0.011 | [1] 0.06 | duvelisib 0.05 | gandotinib -0.048 | tozasertib 0.015 | doramapimod 0.003 | bafetinib -0.083 | [2] 0.041 | nilotinib 0 | [3] -0.005 | dasatinib -0.023 | [4] -0.015 | [5] 0.053 | quisinostat -0.005 | tipifarnib 0.009 | [6] -0.016 | [7] 0.009 | [8] -0.05

FARSA (UniProt Q9Y285)
inactive: lapatinib -0.028 | pictilisib 0.012 | crizotinib -0.05 | [1] -0.003 | duvelisib 0.056 | gandotinib 0.039 | tozasertib -0.063 | doramapimod 0 | bafetinib -0.075 | [2] -0.047 | nilotinib -0.006 | [3] 0.017 | dasatinib -0.03 | [4] -0.003 | [5] 0.001 | quisinostat -0.037 | tipifarnib 0.003 | [6] 0.009 | [7] -0.015 | [8] -0.056

FBXO4 (UniProt Q9UKT5)
inactive: lapatinib -0.003 | pictilisib -0.031 | crizotinib -0.089 | [1] -0.035 | duvelisib -0.019 | gandotinib 0.019 | tozasertib 0.034 | doramapimod 0.024 | bafetinib -0.055 | [2] 0.026 | nilotinib 0.011 | [3] 0.019 | dasatinib -0.049 | [4] -0.001 | [5] 0.004 | quisinostat 0 | tipifarnib 0.004 | [6] -0.002 | [7] 0.023 | [8] 0.036

FAT3 isoform 1 (UniProt Q8TDW7)
inactive: lapatinib -0.011 | pictilisib -0.05 | crizotinib -0.035 | [1] 0.127 | duvelisib -0.063 | gandotinib -0.117 | tozasertib -0.011 | doramapimod -0.001 | bafetinib -0.025 | [2] -0.172 | nilotinib -0.044 | [3] 0.043 | dasatinib 0.014 | [4] -0.034 | [5] 0.004 | quisinostat -0.028 | tipifarnib -0.065 | [6] -0.011 | [7] -0.015 | [8] 0.035

FKBP3 (UniProt Q00688)
inactive: lapatinib -0.016 | pictilisib -0.005 | crizotinib 0.022 | [1] -0.011 | duvelisib -0.001 | gandotinib 0.054 | tozasertib 0.005 | doramapimod -0.068 | bafetinib 0.004 | [2] -0.02 | nilotinib -0.002 | [3] 0.005 | dasatinib 0.018 | [4] 0.037 | [5] -0.028 | quisinostat -0.007 | tipifarnib 0.012 | [6] 0.015 | [7] -0.013 | [8] 0.012

FHL3 (UniProt Q13643)
inactive: lapatinib 0.11 | pictilisib 0.017 | crizotinib 0.019 | [1] 0.041 | duvelisib 0.017 | gandotinib 0 | tozasertib 0.033 | doramapimod 0.02 | bafetinib 0.104 | [2] -0.044 | nilotinib 0.047 | [3] 0.038 | dasatinib -0.126 | [4] 0.046 | [5] -0.029 | quisinostat 0.12 | tipifarnib 0.026 | [6] -0.083 | [7] -0.009 | [8] -0.001

FKBP14 (UniProt Q9NWM8)
inactive: lapatinib -0.006 | pictilisib -0.097 | crizotinib 0.009 | [1] -0.044 | duvelisib 0.01 | gandotinib 0.016 | tozasertib -0.011 | doramapimod 0.002 | bafetinib -0.112 | [2] -0.039 | nilotinib 0.119 | [3] -0.055 | dasatinib -0.011 | [4] 0.008 | [5] -0.053 | quisinostat 0.049 | tipifarnib -0.007 | [6] -0.029 | [7] 0.031 | [8] 0.007

FCSK (UniProt Q8N0W3)
inactive: lapatinib 0.006 | pictilisib -0.023 | crizotinib -0.01 | [1] -0.092 | duvelisib 0.018 | gandotinib 0.031 | tozasertib 0.017 | doramapimod -0.004 | bafetinib -0.014 | [2] 0.041 | nilotinib 0.005 | [3] 0.008 | dasatinib 0.027 | [4] -0.026 | [5] 0.022 | quisinostat -0.042 | tipifarnib 0.066 | [6] 0.059 | [7] 0.001 | [8] 0.012

FLVCR1 (UniProt Q9Y5Y0)
inactive: lapatinib 0.015 | pictilisib 0.001 | crizotinib -0.016 | [1] -0.046 | duvelisib 0.052 | gandotinib -0.117 | tozasertib 0.068 | doramapimod -0.029 | bafetinib -0.006 | [2] 0.04 | nilotinib -0.085 | [3] 0.003 | dasatinib 0.279 | [4] 0.092 | [5] 0.062 | quisinostat -0.067 | tipifarnib 0.027 | [6] 0.068 | [7] -0.025 | [8] 0.001

FANCL isoform 2 (UniProt Q9NW38)
inactive: lapatinib -0.026 | pictilisib -0.063 | crizotinib -0.046 | [1] -0.226 | duvelisib 0.107 | gandotinib -0.341 | tozasertib 0.029 | doramapimod -0.151 | bafetinib -0.094 | [2] 0.031 | nilotinib -0.071 | [3] -0.043 | dasatinib -0.02 | [4] 0.009 | [5] -0.137 | quisinostat 0.104 | tipifarnib -0.098 | [6] 0.043 | [7] 0.327 | [8] -0.026

FMR1 (UniProt Q06787)
inactive: lapatinib -0.01 | pictilisib -0.084 | crizotinib -0.011 | [1] -0.097 | duvelisib 0.06 | gandotinib 0.091 | tozasertib -0.039 | doramapimod -0.058 | bafetinib -0.037 | [2] 0.134 | nilotinib -0.061 | [3] 0.019 | dasatinib -0.038 | [4] 0.026 | [5] 0.07 | quisinostat 0.028 | tipifarnib -0.011 | [6] 0.018 | [7] -0.027 | [8] 0.004

FEM1B (UniProt Q9UK73)
inactive: lapatinib -0.144 | pictilisib 0.072 | crizotinib -0.041 | [1] -0.203 | duvelisib 0.003 | gandotinib 0.066 | tozasertib -0.038 | doramapimod 0.023 | bafetinib -0.214 | [2] 0.122 | nilotinib 0.004 | [3] 0.014 | dasatinib -0.007 | [4] -0.053 | [5] 0.018 | quisinostat -0.113 | tipifarnib -0.083 | [6] 0.002 | [7] 0.033 | [8] 0.002

FGF13 isoform 3 (UniProt Q92913)
inactive: lapatinib -0.013 | pictilisib 0.008 | crizotinib 0.049 | [1] -0.037 | duvelisib 0.012 | gandotinib 0.062 | tozasertib 0.026 | doramapimod -0.009 | bafetinib 0.028 | [2] -0.159 | nilotinib 0.008 | [3] -0.08 | dasatinib 0.038 | [4] 0.028 | [5] -0.015 | quisinostat -0.004 | tipifarnib 0.013 | [6] -0.001 | [7] 0.043 | [8] -0.061

Retrieved one by one from the list above (two):
FBL (UniProt P22087)
inactive: lapatinib -0.047 | pictilisib -0.017 | crizotinib -0.011 | [1] 0.06 | duvelisib 0.05 | gandotinib -0.048 | tozasertib 0.015 | doramapimod 0.003 | bafetinib -0.083 | [2] 0.041 | nilotinib 0 | [3] -0.005 | dasatinib -0.023 | [4] -0.015 | [5] 0.053 | quisinostat -0.005 | tipifarnib 0.009 | [6] -0.016 | [7] 0.009 | [8] -0.05

FGF13 isoform 3 (UniProt Q92913)
inactive: lapatinib -0.013 | pictilisib 0.008 | crizotinib 0.049 | [1] -0.037 | duvelisib 0.012 | gandotinib 0.062 | tozasertib 0.026 | doramapimod -0.009 | bafetinib 0.028 | [2] -0.159 | nilotinib 0.008 | [3] -0.08 | dasatinib 0.038 | [4] 0.028 | [5] -0.015 | quisinostat -0.004 | tipifarnib 0.013 | [6] -0.001 | [7] 0.043 | [8] -0.061

Later entries:

FAM89A (UniProt Q96GI7)
inactive: lapatinib 0.108 | pictilisib 0.035 | crizotinib -0.049 | [1] 0.036 | duvelisib -0.093 | gandotinib -0.035 | tozasertib -0.02 | doramapimod -0.028 | bafetinib 0.113 | [2] -0.039 | nilotinib 0.009 | [3] -0.132 | dasatinib -0.024 | [4] -0.005 | [5] -0.019 | quisinostat -0.02 | tipifarnib 0.025 | [6] 0.033 | [7] 0.116 | [8] 0.044
